According to the supplement of paper PMC8728848:
This is one part of the list.

How the values were obtained:
Test in all cases: glycan array binding signal (z-score within array); higher = stronger binding
Settings in all cases: glycan notation: IUPAC condensed, linker removed
[1] = target: Neu5Ac(a2-3)Gal(b1-3)GalNAc
Procedure, shortened: (§1)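 Glycan array binding is given as a within-array Z-score, which can be read as non-binding when negative. The arrays, 3228 of them, came from the Consortium for Functional Glycomics database and were retained only where the protein sequence was available. Z-scores were averaged across arrays of the same protein sequence at different concentrations or buffers and across linkers.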

[2] = target: Neu5Ac(a2-3)Gal(b1-3)GalNAc(b1-3)Gal(a1-4)Gal(b1-4)Glc
Procedure, shortened: as §1

[3] = target: Neu5Ac(a2-3)Gal(b1-3)GalNAc(b1-4)[Neu5Ac(a2-3)]Gal(b1-4)Glc
Procedure, shortened: as §1

[4] = target: Neu5Ac(a2-3)Gal(b1-3)GalNAc(b1-4)[Neu5Ac(a2-8)Neu5Ac(a2-3)]Gal(b1-4)Glc
Procedure, shortened: as §1

[5] = target: Neu5Ac(a2-3)Gal(b1-3)GalNAc6S
Procedure, shortened: as §1

[6] = target: Neu5Ac(a2-3)Gal(b1-3)GlcNAc
Procedure, shortened: as §1

[7] = target: Neu5Ac(a2-3)Gal(b1-3)GlcNAc(b1-2)Man
Procedure, shortened: as §1

[8] = target: Neu5Ac(a2-3)Gal(b1-3)GlcNAc(b1-2)Man(a1-3)[GlcNAc(b1-4)][Neu5Ac(a2-3)Gal(b1-3)GlcNAc(b1-2)Man(a1-6)]Man(b1-4)GlcNAc(b1-4)GlcNAc
Procedure, shortened: as §1

[9] = target: Neu5Ac(a2-3)Gal(b1-3)GlcNAc(b1-2)Man(a1-3)[Neu5Ac(a2-3)Gal(b1-3)GlcNAc(b1-2)Man(a1-6)]Man(b1-4)GlcNAc(b1-4)GlcNAc
Procedure, shortened: as §1

[10] = target: Neu5Ac(a2-3)Gal(b1-3)GlcNAc(b1-3)Gal(b1-3)GlcNAc
Procedure, shortened: as §1

[11] = target: Neu5Ac(a2-3)Gal(b1-3)GlcNAc(b1-3)Gal(b1-4)GlcNAc
Procedure, shortened: as §1

[12] = target: Neu5Ac(a2-3)Gal(b1-3)GlcNAc(b1-3)GalNAc
Procedure, shortened: as §1

[13] = target: Neu5Ac(a2-3)Gal(b1-3)GlcNAc(b1-4)Gal(b1-4)Glc
Procedure, shortened: as §1

[14] = target: Neu5Ac(a2-3)Gal(b1-3)GlcNAc(b1-6)GalNAc
Procedure, shortened: as §1

[15] = target: Neu5Ac(a2-3)Gal(b1-3)GlcNAc6S
Procedure, shortened: as §1

[16] = target: Neu5Ac(a2-3)Gal(b1-3)[Fuc(a1-4)]GlcNAc
Procedure, shortened: as §1

[17] = target: Neu5Ac(a2-3)Gal(b1-3)[Fuc(a1-4)]GlcNAc(b1-3)Gal(b1-3)[Fuc(a1-4)]GlcNAc
Procedure, shortened: as §1

[18] = target: Neu5Ac(a2-3)Gal(b1-3)[Fuc(a1-4)]GlcNAc(b1-3)Gal(b1-4)[Fuc(a1-3)]GlcNAc
Procedure, shortened: as §1

[19] = target: Neu5Ac(a2-3)Gal(b1-3)[GlcNAc(b1-6)]GalNAc
Procedure, shortened: as §1

[20] = target: Neu5Ac(a2-3)Gal(b1-3)[Neu5Ac(a2-6)]GalNAc
Procedure, shortened: as §1

[21] = target: Neu5Ac(a2-3)Gal(b1-3)[Neu5Ac(a2-6)]GlcNAc(b1-3)[Fuc(a1-3)[Gal(b1-4)]GlcNAc(b1-6)]Gal(b1-4)Glc
Procedure, shortened: as §1

[22] = target: Neu5Ac(a2-3)Gal(b1-3)]Neu5Ac(a2-3)Gal(b1-4)]GlcNAc
Procedure, shortened: as §1

Neu5Ac(a2-3)Gal(b1-4)Glc = target: Neu5Ac(a2-3)Gal(b1-4)Glc
Procedure, shortened: as §1

[23] = target: Neu5Ac(a2-3)Gal(b1-4)GlcNAc
Procedure, shortened: as §1

[24] = target: Neu5Ac(a2-3)Gal(b1-4)GlcNAc(b1-2)Man
Procedure, shortened: as §1

[25] = target: Neu5Ac(a2-3)Gal(b1-4)GlcNAc(b1-2)Man(a1-3)[GlcNAc(b1-4)][Neu5Ac(a2-3)Gal(b1-4)GlcNAc(b1-2)Man(a1-6)]Man(b1-4)GlcNAc(b1-4)GlcNAc
Procedure, shortened: as §1

[26] = target: Neu5Ac(a2-3)Gal(b1-4)GlcNAc(b1-2)Man(a1-3)[Neu5Ac(a2-3)Gal(b1-4)GlcNAc(b1-2)Man(a1-6)]Man(b1-4)GlcNAc(b1-4)GlcNAc
Procedure, shortened: as §1

[27] = target: Neu5Ac(a2-3)Gal(b1-4)GlcNAc(b1-2)Man(a1-3)[Neu5Ac(a2-3)Gal(b1-4)GlcNAc(b1-2)Man(a1-6)]Man(b1-4)GlcNAc(b1-4)[Fuc(a1-6)]GlcNAc
Procedure, shortened: as §1

[28] = target: Neu5Ac(a2-3)Gal(b1-4)GlcNAc(b1-2)Man(a1-3)[Neu5Ac(a2-6)Gal(b1-4)GlcNAc(b1-2)Man(a1-6)]Man(b1-4)GlcNAc(b1-4)GlcNAc
Procedure, shortened: as §1

[29] = target: Neu5Ac(a2-3)Gal(b1-4)GlcNAc(b1-2)[Neu5Ac(a2-3)Gal(b1-4)GlcNAc(b1-4)]Man(a1-3)[GlcNAc(b1-4)][Neu5Ac(a2-3)Gal(b1-4)GlcNAc(b1-2)[Neu5Ac(a2-3)Gal(b1-4)GlcNAc(b1-6)]Man(a1-6)]Man(b1-4)GlcNAc(b1-4)GlcNAc
Procedure, shortened: as §1

[30] = target: Neu5Ac(a2-3)Gal(b1-4)GlcNAc(b1-2)[Neu5Ac(a2-3)Gal(b1-4)GlcNAc(b1-4)]Man(a1-3)[GlcNAc(b1-4)][Neu5Ac(a2-3)Gal(b1-4)GlcNAc(b1-4)Man(a1-6)]Man(b1-4)GlcNAc(b1-4)GlcNAc
Procedure, shortened: as §1

[31] = target: Neu5Ac(a2-3)Gal(b1-4)GlcNAc(b1-2)[Neu5Ac(a2-3)Gal(b1-4)GlcNAc(b1-6)]Man(a1-6)[Neu5Ac(a2-3)Gal(b1-4)GlcNAc(b1-2)Man(a1-3)]Man(b1-4)GlcNAc(b1-4)GlcNAc
Procedure, shortened: as §1

[32] = target: Neu5Ac(a2-3)Gal(b1-4)GlcNAc(b1-2)[Neu5Ac(a2-3)Gal(b1-4)GlcNAc(b1-6)]Man(a1-6)[Neu5Ac(a2-3)Gal(b1-4)GlcNAc(b1-2)Man(a1-3)][GlcNAc(b1-4)]Man(b1-4)GlcNAc(b1-4)GlcNAc
Procedure, shortened: as §1

[33] = target: Neu5Ac(a2-3)Gal(b1-4)GlcNAc(b1-3)Gal
Procedure, shortened: as §1

[34] = target: Neu5Ac(a2-3)Gal(b1-4)GlcNAc(b1-3)Gal(b1-3)GlcNAc
Procedure, shortened: as §1

[35] = target: Neu5Ac(a2-3)Gal(b1-4)GlcNAc(b1-3)Gal(b1-4)GlcNAc
Procedure, shortened: as §1

[36] = target: Neu5Ac(a2-3)Gal(b1-4)GlcNAc(b1-3)Gal(b1-4)GlcNAc(b1-2)Man(a1-3)[Neu5Ac(a2-3)Gal(b1-4)GlcNAc(b1-3)Gal(b1-4)GlcNAc(b1-2)Man(a1-6)]Man(b1-4)GlcNAc(b1-4)GlcNAc
Procedure, shortened: as §1

B1: GS7807F-bth-514-18-514 (Bacteroides thetaiotaomicron) (protein)
chain: AGSCTGNFEEYNTNQFQIHEADPSTLMKSMIETIVNIQQNDSQMMDQMVGQLGGYLTCANVWSGTNFGTFNQSDAWNAGPWNTNFEKIYGNFFQIQEATNESGHYYAFARMIRAITMLRVADCYGPMPYSQVKKGNFYVAYDTEEQVYKNIMEDFASAANVLYNYYKDTNGNAPLASNDPVFSGNYANWARLANSMRLRVAIRISTAYPEMAKENAEAAASHEAGLIEANNDNAMMDCGSQTNPYQLAAVSWGDLRVNANIVDYMNGYGDPRMSKYFNHSTFTGHTQEYVGMRSGEDGFAKSDVAGYSIPAITGTSKLLVFCAAETAFLRAEGKLKNWSVGNKSAKEYYEEGIKLSMEQYGTTMPDNYLTNTEKPTVSHNNDPRGHAYTISNTVAVAWNDNNEEENLQRIITQKWIANYPLGLEAWAEYRRTGYPELYPCIDNLSPSGVDSKRGMRRLRFPYTEVQNNHSNYQQGVSYLKNGGPDNEATDLSWGKTN
[1]
  glycan array binding signal (z-score): -0.393
[2]
  glycan array binding signal (z-score): -0.63
[3]
  glycan array binding signal (z-score): -0.663
[4]
  glycan array binding signal (z-score): -0.426
[5]
  glycan array binding signal (z-score): -0.85
[6]
  glycan array binding signal (z-score): -0.648
[7]
  glycan array binding signal (z-score): 0.022
[8]
  glycan array binding signal (z-score): -0.496
[9]
  glycan array binding signal (z-score): 0.876
[10]
  glycan array binding signal (z-score): -0.891
[11]
  glycan array binding signal (z-score): -0.842
[12]
  glycan array binding signal (z-score): -0.871
[13]
  glycan array binding signal (z-score): -0.518
[14]
  glycan array binding signal (z-score): 2.43
[15]
  glycan array binding signal (z-score): -0.491
[16]
  glycan array binding signal (z-score): -0.85
[17]
  glycan array binding signal (z-score): -0.848
[18]
  glycan array binding signal (z-score): 0.124
[19]
  glycan array binding signal (z-score): -0.857
[20]
  glycan array binding signal (z-score): -0.819
[21]
  glycan array binding signal (z-score): -0.355
[22]
  glycan array binding signal (z-score): -0.664
Neu5Ac(a2-3)Gal(b1-4)Glc
  glycan array binding signal (z-score): -0.164
[23]
  glycan array binding signal (z-score): 0.054
[24]
  glycan array binding signal (z-score): -0.11
[25]
  glycan array binding signal (z-score): -0.896
[26]
  glycan array binding signal (z-score): -0.629
[27]
  glycan array binding signal (z-score): -0.842
[28]
  glycan array binding signal (z-score): 0.223
[29]
  glycan array binding signal (z-score): -0.844
[30]
  glycan array binding signal (z-score): -0.887
[31]
  glycan array binding signal (z-score): -0.391
[32]
  glycan array binding signal (z-score): -0.89
[33]
  glycan array binding signal (z-score): -0.848
[34]
  glycan array binding signal (z-score): -0.597
[35]
  glycan array binding signal (z-score): -0.353
[36]
  glycan array binding signal (z-score): 2.45
